Laboratory results reported in article PMC9392723.
Results are given in words; binding and its absence hold for the method and conditions named. In cells and extracts the contact can be indirect. Some entries that bind do so weakly or less than the wild type. Where a sequence is shown, tags or fusion partners need not be part of it.

Experiments:
Test in all cases: co-IP; HEK293 cells transfected with HA-PAHwt, HA-R241C or HA-R243Q along with Flag-USP19; lysed in IP lysis buffer (150 mM NaCl, 1 mM EDTA, 25 mM Tris-HCl pH 7.4, 1% NP-40, 5% glycerol); lysates incubated with anti-Flag or anti-HA antibody at 4 °C overnight, Protein A/G Plus Agarose beads, immunoblot with reciprocal antibodies
[1] = target: T1, Flag-tagged USP19 (UniProt O94966)
T1 sequence: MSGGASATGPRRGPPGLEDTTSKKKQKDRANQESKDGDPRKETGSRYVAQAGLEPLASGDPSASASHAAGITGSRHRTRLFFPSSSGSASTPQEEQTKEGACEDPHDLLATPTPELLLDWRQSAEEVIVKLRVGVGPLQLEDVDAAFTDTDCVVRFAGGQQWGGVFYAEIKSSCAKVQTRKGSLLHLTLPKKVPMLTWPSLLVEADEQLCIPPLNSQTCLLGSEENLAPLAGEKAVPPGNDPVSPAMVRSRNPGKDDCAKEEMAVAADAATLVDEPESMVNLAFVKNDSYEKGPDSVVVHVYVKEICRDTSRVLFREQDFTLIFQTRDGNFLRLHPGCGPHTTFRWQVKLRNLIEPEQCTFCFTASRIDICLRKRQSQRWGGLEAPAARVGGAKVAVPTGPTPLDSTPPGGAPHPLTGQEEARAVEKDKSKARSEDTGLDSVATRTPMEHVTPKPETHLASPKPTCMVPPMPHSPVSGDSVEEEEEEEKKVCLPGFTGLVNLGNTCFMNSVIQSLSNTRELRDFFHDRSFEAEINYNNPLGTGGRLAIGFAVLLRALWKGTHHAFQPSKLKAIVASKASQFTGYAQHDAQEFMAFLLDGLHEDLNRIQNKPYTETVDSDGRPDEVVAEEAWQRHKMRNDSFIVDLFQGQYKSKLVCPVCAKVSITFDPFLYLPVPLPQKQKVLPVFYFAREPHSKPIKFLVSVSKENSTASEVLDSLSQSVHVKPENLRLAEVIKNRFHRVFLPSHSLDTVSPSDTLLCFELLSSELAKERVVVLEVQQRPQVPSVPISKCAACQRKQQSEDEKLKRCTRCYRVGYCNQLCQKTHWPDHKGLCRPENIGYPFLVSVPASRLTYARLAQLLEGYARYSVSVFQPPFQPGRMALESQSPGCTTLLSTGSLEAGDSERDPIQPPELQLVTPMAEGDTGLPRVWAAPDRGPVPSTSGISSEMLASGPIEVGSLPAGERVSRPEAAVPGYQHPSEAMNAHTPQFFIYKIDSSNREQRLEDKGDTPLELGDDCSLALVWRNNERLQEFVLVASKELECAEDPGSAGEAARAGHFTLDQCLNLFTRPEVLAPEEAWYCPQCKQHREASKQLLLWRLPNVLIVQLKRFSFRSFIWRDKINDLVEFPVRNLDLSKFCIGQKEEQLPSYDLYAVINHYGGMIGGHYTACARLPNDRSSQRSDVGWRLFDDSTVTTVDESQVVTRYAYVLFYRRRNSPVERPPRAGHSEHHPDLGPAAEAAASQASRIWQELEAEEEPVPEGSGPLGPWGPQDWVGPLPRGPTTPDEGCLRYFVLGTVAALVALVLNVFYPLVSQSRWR

[2] = target: T2, HA-tagged PAH R241C (human) (UniProt P00439)
T2 sequence: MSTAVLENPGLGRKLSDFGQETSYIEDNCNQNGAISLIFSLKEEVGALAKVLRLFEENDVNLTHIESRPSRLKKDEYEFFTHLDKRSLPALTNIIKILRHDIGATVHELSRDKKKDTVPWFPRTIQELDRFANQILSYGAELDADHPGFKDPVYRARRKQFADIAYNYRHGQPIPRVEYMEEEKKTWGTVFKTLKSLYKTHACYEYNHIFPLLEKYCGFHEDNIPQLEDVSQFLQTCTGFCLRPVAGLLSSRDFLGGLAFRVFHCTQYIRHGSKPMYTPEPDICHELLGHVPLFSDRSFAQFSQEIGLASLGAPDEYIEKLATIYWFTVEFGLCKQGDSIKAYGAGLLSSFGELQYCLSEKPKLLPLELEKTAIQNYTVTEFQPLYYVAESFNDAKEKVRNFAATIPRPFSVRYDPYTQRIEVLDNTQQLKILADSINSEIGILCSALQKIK

[3] = target: T3, HA-tagged PAH R243Q (human) (UniProt P00439)
T3 sequence: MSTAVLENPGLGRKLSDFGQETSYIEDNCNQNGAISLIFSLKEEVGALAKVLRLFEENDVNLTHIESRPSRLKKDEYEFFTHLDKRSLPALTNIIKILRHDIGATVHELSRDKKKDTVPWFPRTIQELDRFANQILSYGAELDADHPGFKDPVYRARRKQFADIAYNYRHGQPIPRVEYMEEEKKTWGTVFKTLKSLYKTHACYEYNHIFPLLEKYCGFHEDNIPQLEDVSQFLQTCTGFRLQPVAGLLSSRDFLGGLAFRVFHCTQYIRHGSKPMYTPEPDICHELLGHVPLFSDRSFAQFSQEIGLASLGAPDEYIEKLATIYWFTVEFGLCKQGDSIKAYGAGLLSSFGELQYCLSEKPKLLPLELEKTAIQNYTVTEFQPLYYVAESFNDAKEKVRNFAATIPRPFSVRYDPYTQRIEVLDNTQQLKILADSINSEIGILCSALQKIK

[4] = target: T4, HA-tagged PAH wild-type (human) (UniProt P00439)
T4 sequence: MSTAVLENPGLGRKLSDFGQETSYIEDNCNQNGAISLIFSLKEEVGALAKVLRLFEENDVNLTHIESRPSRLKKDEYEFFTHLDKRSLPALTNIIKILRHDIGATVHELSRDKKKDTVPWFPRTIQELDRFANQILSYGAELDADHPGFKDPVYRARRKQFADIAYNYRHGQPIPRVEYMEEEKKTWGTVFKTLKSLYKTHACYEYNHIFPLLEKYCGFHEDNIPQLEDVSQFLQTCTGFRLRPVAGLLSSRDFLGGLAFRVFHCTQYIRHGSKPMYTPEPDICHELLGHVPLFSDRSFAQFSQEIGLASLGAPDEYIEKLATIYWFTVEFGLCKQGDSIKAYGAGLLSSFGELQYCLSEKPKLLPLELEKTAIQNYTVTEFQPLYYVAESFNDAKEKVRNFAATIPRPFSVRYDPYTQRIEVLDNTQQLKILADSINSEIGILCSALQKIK

| binding [1] | binding [2] | binding [3] | binding [4] | Binder |
| --- | --- | --- | --- | --- |
| binds |  |  |  | HA-tagged PAH wild-type (enzyme, UniProt P00439 1-452) MSTAVLENPGLGRKLSDFGQETSYIEDNCNQNGAISLIFSLKEEVGALAKVLRLFEENDVNLTHIESRPSRLKKDEYEFFTHLDKRSLPALTNIIKILRHDIGATVHELSRDKKKDTVPWFPRTIQELDRFANQILSYGAELDADHPGFKDPVYRARRKQFADIAYNYRHGQPIPRVEYMEEEKKTWGTVFKTLKSLYKTHACYEYNHIFPLLEKYCGFHEDNIPQLEDVSQFLQTCTGFRLRPVAGLLSSRDFLGGLAFRVFHCTQYIRHGSKPMYTPEPDICHELLGHVPLFSDRSFAQFSQEIGLASLGAPDEYIEKLATIYWFTVEFGLCKQGDSIKAYGAGLLSSFGELQYCLSEKPKLLPLELEKTAIQNYTVTEFQPLYYVAESFNDAKEKVRNFAATIPRPFSVRYDPYTQRIEVLDNTQQLKILADSINSEIGILCSALQKIK |
| binds |  |  |  | HA-tagged PAH R241C (enzyme, UniProt P00439 1-452) MSTAVLENPGLGRKLSDFGQETSYIEDNCNQNGAISLIFSLKEEVGALAKVLRLFEENDVNLTHIESRPSRLKKDEYEFFTHLDKRSLPALTNIIKILRHDIGATVHELSRDKKKDTVPWFPRTIQELDRFANQILSYGAELDADHPGFKDPVYRARRKQFADIAYNYRHGQPIPRVEYMEEEKKTWGTVFKTLKSLYKTHACYEYNHIFPLLEKYCGFHEDNIPQLEDVSQFLQTCTGFCLRPVAGLLSSRDFLGGLAFRVFHCTQYIRHGSKPMYTPEPDICHELLGHVPLFSDRSFAQFSQEIGLASLGAPDEYIEKLATIYWFTVEFGLCKQGDSIKAYGAGLLSSFGELQYCLSEKPKLLPLELEKTAIQNYTVTEFQPLYYVAESFNDAKEKVRNFAATIPRPFSVRYDPYTQRIEVLDNTQQLKILADSINSEIGILCSALQKIK |
| binds |  |  |  | HA-tagged PAH R243Q (enzyme, UniProt P00439 1-452) MSTAVLENPGLGRKLSDFGQETSYIEDNCNQNGAISLIFSLKEEVGALAKVLRLFEENDVNLTHIESRPSRLKKDEYEFFTHLDKRSLPALTNIIKILRHDIGATVHELSRDKKKDTVPWFPRTIQELDRFANQILSYGAELDADHPGFKDPVYRARRKQFADIAYNYRHGQPIPRVEYMEEEKKTWGTVFKTLKSLYKTHACYEYNHIFPLLEKYCGFHEDNIPQLEDVSQFLQTCTGFRLQPVAGLLSSRDFLGGLAFRVFHCTQYIRHGSKPMYTPEPDICHELLGHVPLFSDRSFAQFSQEIGLASLGAPDEYIEKLATIYWFTVEFGLCKQGDSIKAYGAGLLSSFGELQYCLSEKPKLLPLELEKTAIQNYTVTEFQPLYYVAESFNDAKEKVRNFAATIPRPFSVRYDPYTQRIEVLDNTQQLKILADSINSEIGILCSALQKIK |
|  | binds | binds | binds | Flag-tagged USP19 (enzyme, UniProt O94966 1-1318) MSGGASATGPRRGPPGLEDTTSKKKQKDRANQESKDGDPRKETGSRYVAQAGLEPLASGDPSASASHAAGITGSRHRTRLFFPSSSGSASTPQEEQTKEGACEDPHDLLATPTPELLLDWRQSAEEVIVKLRVGVGPLQLEDVDAAFTDTDCVVRFAGGQQWGGVFYAEIKSSCAKVQTRKGSLLHLTLPKKVPMLTWPSLLVEADEQLCIPPLNSQTCLLGSEENLAPLAGEKAVPPGNDPVSPAMVRSRNPGKDDCAKEEMAVAADAATLVDEPESMVNLAFVKNDSYEKGPDSVVVHVYVKEICRDTSRVLFREQDFTLIFQTRDGNFLRLHPGCGPHTTFRWQVKLRNLIEPEQCTFCFTASRIDICLRKRQSQRWGGLEAPAARVGGAKVAVPTGPTPLDSTPPGGAPHPLTGQEEARAVEKDKSKARSEDTGLDSVATRTPMEHVTPKPETHLASPKPTCMVPPMPHSPVSGDSVEEEEEEEKKVCLPGFTGLVNLGNTCFMNSVIQSLSNTRELRDFFHDRSFEAEINYNNPLGTGGRLAIGFAVLLRALWKGTHHAFQPSKLKAIVASKASQFTGYAQHDAQEFMAFLLDGLHEDLNRIQNKPYTETVDSDGRPDEVVAEEAWQRHKMRNDSFIVDLFQGQYKSKLVCPVCAKVSITFDPFLYLPVPLPQKQKVLPVFYFAREPHSKPIKFLVSVSKENSTASEVLDSLSQSVHVKPENLRLAEVIKNRFHRVFLPSHSLDTVSPSDTLLCFELLSSELAKERVVVLEVQQRPQVPSVPISKCAACQRKQQSEDEKLKRCTRCYRVGYCNQLCQKTHWPDHKGLCRPENIGYPFLVSVPASRLTYARLAQLLEGYARYSVSVFQPPFQPGRMALESQSPGCTTLLSTGSLEAGDSERDPIQPPELQLVTPMAEGDTGLPRVWAAPDRGPVPSTSGISSEMLASGPIEVGSLPAGERVSRPEAAVPGYQHPSEAMNAHTPQFFIYKIDSSNREQRLEDKGDTPLELGDDCSLALVWRNNERLQEFVLVASKELECAEDPGSAGEAARAGHFTLDQCLNLFTRPEVLAPEEAWYCPQCKQHREASKQLLLWRLPNVLIVQLKRFSFRSFIWRDKINDLVEFPVRNLDLSKFCIGQKEEQLPSYDLYAVINHYGGMIGGHYTACARLPNDRSSQRSDVGWRLFDDSTVTTVDESQVVTRYAYVLFYRRRNSPVERPPRAGHSEHHPDLGPAAEAAASQASRIWQELEAEEEPVPEGSGPLGPWGPQDWVGPLPRGPTTPDEGCLRYFVLGTVAALVALVLNVFYPLVSQSRWR |
